# Results from PubChem BioAssay AID2685 (National Center for Advancing Translational Sciences (NCATS), 2010).
# Values joined by “and” are separate entries in the source; they are usually repeats but may differ in a detail not shown here. Equal values may be shown once. The list shows a part of the results. Shown are side measurements of this screen, not its main read-out; they come without a call. Most of these compounds were active or inconclusive in the main read-out, so they are no random draw. Potencies come from curve fits of mixed quality, noted in brackets.
# Assay: qHTS Assay for Lipid Storage Modulators in Drosophila S3 Cells;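 for cell number change: cells counted by Cell Tracker Red CMTPX staining in the red channel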
# Conditions: BODIPY lipid droplet fluorescence, 18-24 h; for cell number change: measured here: cell count max response, cells fed with added oleic acid
# In short: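 Drosophila S3 cells got compounds at several concentrations plus oleic acid (400 uM solution). Laser-scanning cytometry with 488 nm excitation read lipid droplets at 500-530 nm and cells at 575-640 nm. Percent activity was relative to 20 uM Triacsin C.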
# [1] = measured here: cell number channel AC50, cells fed with added oleic acid
# [2] = measured here: lipid fluorescence (Fed channel) AC50, cells fed with added oleic acid
Compound,cell number change,AC50 [1],AC50 [2]
Cc1c(OCc2nn[nH]n2)ccc2c(-c3ccccc3)cc(=O)oc12,3.75%,"0.651 µM [falling, single point]",–
Cc1coc2c(C)c3oc(=O)c(CCC(=O)NCc4ccccn4)c(C)c3cc12,-21.2%,–,"0.731 µM [falling, full curve, poor fit]"
COc1cc(CNC(C)(C)CO)ccc1OCC(=O)Nc1ccc(Br)cc1,-13.3%,–,"1.64 µM [falling, full curve, poor fit]"
CCCOc1ccc2cc(C(=O)NCc3ccccc3)c(=O)oc2c1,–,–,"6.51 µM [rising, single point]"
CCC(SC1=N/C(=C/c2ccccc2OC)C(=O)N1c1ccccc1)C(=O)Nc1cc(C)on1 (configuration not stated),142%,–,"29.1 µM [rising, single point]"
COc1cccc(CN=c2c([N+](=O)[O-])nn(-c3ccccc3C)n2O)c1,15.3%,–,"0.517 µM [falling, single point]"
COc1cc(/C=N/n2c(C)nnc2C)cc(OC)c1OC,0.457%,–,"0.058 µM [falling, full curve, poor fit]"
COC(=O)CN1C(=O)[C@H]2[C@@H](c3ccc(C)o3)N3C(=O)CN(Cc4ccccc4)C(=O)[C@@]3(Cc3ccccc3)[C@H]2C1=O,31.1%,"2.59 µM [rising, full curve]","29.1 µM [rising, single point]"
C/C(O)=C/c1nc2ccccc2[nH]c1=O,0.987%,–,"4.11 µM [rising, single point]"
Cc1ccccc1NC(=O)CN1C(=O)COc2ccc(S(=O)(=O)N3CCCC3)cc21,51.1%,"29.1 µM [rising, single point]","25.9 µM [rising, single point]"
COc1ccc(N2C(=O)CC(NNc3ncc(Cl)cc3Cl)C2=O)cc1 (configuration not stated),–,"0.82 µM [rising, full curve]","20.6 µM [rising, partial curve]"
COc1ccccc1C(=O)N/C(=C\c1ccc2c(c1)OCO2)C(=O)NCCc1nc2ccccc2[nH]1,-39.8%,"1.84 µM [falling, partial curve, poor fit]","4.61 µM [rising, partial curve]"
O=c1c2cc(Cl)ccc2nc(-c2ccccc2)n1O,-35.6%,"5.8 µM [falling, full curve]","3.26 µM [falling, single point]"
Cc1ccc(NS(=O)(=O)c2ccc3c(c2)CC(=O)N3)cc1Cl,–,–,"0.103 µM [rising, full curve, poor fit]"
CC1(C)Cc2c(sc3c2c2ncnn2c2nnc(SCC(=O)NCc4ccco4)n32)CO1,4.97%,–,"3.66 µM [falling, single point]"
COc1ccc2c(c1)O[C@@H](c1cccc(C(F)(F)F)c1)[C@H](OC(=O)Nc1ccc(OC(F)F)cc1)C2=O,-11.5%,–,–
CCCn1c(SCC(=O)NCCc2ccccc2)nnc1-c1cccnc1,2.82%,–,"2.31 µM [rising, full curve, poor fit]"
COc1ccc2ccccc2c1/C=N/Nc1cccc(C(=O)O)c1,-23.6%,–,–
CCNC(=O)OCCC12CC3CC(CC(C3)C1)C2,-32.2%,"13 µM [falling, single point]","16.4 µM [falling, partial curve]"
CC(C)(CO)NCc1cccs1,3.73%,–,"18.4 µM [rising, single point]"
O=C(NCCC1=CCCCC1)c1ccc(Cl)c(S(=O)(=O)N2CCOCC2)c1,–,–,"0.231 µM [falling, full curve]"

Compound,cell number change,AC50 [1],AC50 [2]
COC(=O)C(NC(=O)c1ccc(F)cc1)(Nc1nc(C)cs1)C(F)(F)F (configuration not stated),–,"2.31 µM [rising, partial curve]",–
COc1ccc([N+](=O)[O-])cc1NC(=O)C(C)N(C)Cc1ccc(Br)cc1 (configuration not stated),9.05%,"2.06 µM [falling, partial curve, poor fit]",–
CCOC(=O)c1nc(C)n(-c2cc(Cl)cc(Cl)c2)n1,30.9%,"16.4 µM [rising, single point]","29.1 µM [rising, single point]"
N=c1n(-c2ccccc2)c(O)cc(=O)n1-c1ccccc1,-9.2%,–,"1.03 µM [falling, full curve, poor fit]"
CC(OC(=O)Cc1ccc(F)cc1)C(=O)N1CCc2ccccc21 (configuration not stated),-50%,"3.66 µM [falling, full curve]",–
CCCC(C)c1nnc(NC(=O)C2CC(=O)N(CCc3ccc(F)cc3)C2)s1 (configuration not stated),16.1%,–,"0.58 µM [falling, single point]"
CN(CC(=O)Nc1cccc(S(=O)(=O)NC2=NCCCCC2)c1)Cc1ccc(C(C)(C)C)cc1,–,"6.51 µM [rising, single point]",–
Cc1ccn(CCC(=O)NC2CCCc3c2cnn3-c2cccc(C)c2C)n1 (configuration not stated),-7.65%,–,"6.51 µM [rising, single point]"
CC(=O)c1sc(Nc2cccc(C)c2)nc1C,-51.7%,"0.116 µM [falling, full curve, poor fit]","0.116 µM [falling, full curve, poor fit]"
CCc1nc2ccccc2c(C(=O)OCCN2C(=O)c3ccccc3C2=O)c1C,19.8%,"2.06 µM [rising, single point]",–
CC(C)OC(=O)C1C2C=CC3(CN(CC4CCCO4)C(=O)C13)O2 (configuration not stated),-18.7% and -24.9%,–,"29.1 µM [falling, single point] and 18.4 µM [falling, partial curve]"
O=C(NCCN1C(=O)S/C(=C\c2ccccc2F)C1=O)C1CCCN1C(=O)c1cccs1 (configuration not stated),-1.44%,–,–
Cc1cccc([C@@H]2[C@@H]3C(=O)N(Cc4ccccc4)C(=O)[C@@H]3[C@]3(Cc4ccc(Cl)cc4)C(=O)N(c4cccc(Br)c4)C(=O)N23)c1,98.2%,"23.1 µM [rising, partial curve]",–
CCc1cc(C(=O)c2ccc(Br)cc2)c(NC(=O)CN(CC)CC)s1,0.525%,–,"29.1 µM [rising, single point]"
CS(=O)(=O)N(CC(=O)Nc1ccc(Br)cc1F)C1CCCCC1,-24.6%,–,"29.1 µM [falling, single point]"
Cc1ccc(-c2nnc(NCc3nc4ccccc4[nH]3)c3ccccc23)cc1S(=O)(=O)N(C)C,-18.7%,–,"32.6 µM [falling, single point]"
O=C(OCc1c(Cl)cccc1Cl)c1cccnc1Cl,–,–,"2.31 µM [rising, single point]"
CCOc1ccc(NC(=S)NC(=O)Cc2ccccc2)cc1,21.2%,–,–
O=C(CN1CCCCC1)Nc1ccccc1Cl,4.53%,–,–
Cc1ccccc1NC(=O)c1sc2nc[nH]c(=O)c2c1C,–,"0.116 µM [falling, partial curve, poor fit]",–
Cc1nnc(NC(=O)CSc2nnc(-c3ccco3)o2)s1,-1.78%,–,"0.146 µM [falling, full curve, poor fit]"

# Whole records as entered above.
# Cc1ccccc1NC(=O)c1sc2nc[nH]c(=O)c2c1C is listed with AC50 [1]: 0.116 µM [falling, partial curve, poor fit]
# O=C(OCc1c(Cl)cccc1Cl)c1cccnc1Cl is listed with AC50 [2]: 2.31 µM [rising, single point]
# N=c1n(-c2ccccc2)c(O)cc(=O)n1-c1ccccc1 is listed with cell number change: -9.2%; AC50 [2]: 1.03 µM [falling, full curve, poor fit]

# Following part:

Compound,cell number change,AC50 [1],AC50 [2]
O=C(CN1C(=O)c2ccccc2C1=O)NCCc1c[nH]c2ccccc12,-5.49%,–,–
COc1ccccc1N=NC1C(=O)N(C(N)=S)N=C1C (configuration not stated),-16.7%,–,"29.1 µM [falling, single point]"
O=C(O)C1CCN(S(=O)(=O)/C=C/c2ccccc2)CC1,16.4%,–,"25.9 µM [falling, partial curve]"
CCOc1ccc2c(c1)C(C)=CC(C)(C)N2,-11.3%,–,–
COc1ccc2sc(-c3ccccc3OC)c(C#CC(C)(C)O)c2c1,14%,–,"0.00517 µM [rising, full curve, poor fit]"
Cc1csc(SCCn2c(N3CCCC3)nc3c2c(=O)[nH]c(=O)n3C)n1,–,"2.31 µM [rising, partial curve]","1.84 µM [rising, full curve]"
CCC(=O)N1CCc2cc(S(=O)(=O)NCCC(=O)Nc3cc(C)cc(C)c3)ccc21,–,–,"0.0184 µM [rising, full curve, poor fit]"
C#CCOc1ccccc1CNc1ccccc1,0.244%,–,"8.2 µM [rising, partial curve]"
Cc1ccc(C(O)P(=O)(OCCC(C)C)c2ccc(N(C)C)cc2)cc1 (configuration not stated),-36.5%,–,–
CCC(C)(C(=O)NC1CCCC1)N(C(=O)c1cnccn1)c1ccccc1 (configuration not stated),8.26%,–,–
COC(=O)/C=C\C(=O)Nc1cccc([N+](=O)[O-])c1,-37.7%,"3.66 µM [falling, full curve]","2.59 µM [falling, full curve]"
COc1ccccc1NC(=O)NC1(C(=O)N2CCC(C)CC2)CCCCC1,7.26%,–,"29.1 µM [rising, single point]"
Cc1onc(-c2ccccc2)c1C(=O)NC(=S)Nc1sc2c(c1C#N)CCCC2,-43.3%,"1.03 µM [falling, full curve, poor fit]","2.06 µM [rising, partial curve]"
COc1ccc(N/C(=C/[N+](=O)[O-])SC)cc1,–,–,"1.03 µM [falling, single point]"
COc1ccc(-c2nc(N)n[nH]2)cc1,6.29%,–,–
CC(=O)c1cccc(OCc2cc(C(=O)NCc3nc(C)c(C)s3)no2)c1,-27.2%,–,"6.51 µM [rising, single point]"
O=C(C1CCC(CNc2c(N3CCCCC3)c(=O)c2=O)CC1)N1CCCCC1 (configuration not stated),5.5%,–,–
CCCc1ccc(OCCNC(=O)CC)cc1,2.77%,–,"6.51 µM [rising, partial curve]"
CS(=O)(=O)c1ccc(Sc2nc3ccccc3s2)c([N+](=O)[O-])c1,-35.3%,"4.61 µM [falling, partial curve]","2.91 µM [falling, full curve, poor fit]"

# Quoted at random: two entries already listed
Compound,cell number change,AC50 [1],AC50 [2]
CCC(=O)N1CCc2cc(S(=O)(=O)NCCC(=O)Nc3cc(C)cc(C)c3)ccc21,–,–,"0.0184 µM [rising, full curve, poor fit]"
CCC(SC1=N/C(=C/c2ccccc2OC)C(=O)N1c1ccccc1)C(=O)Nc1cc(C)on1 (configuration not stated),142%,–,"29.1 µM [rising, single point]"
